Values from PubChem BioAssay AID743454 (Peter MacCallum Cancer Centre, 2014).

- Aim: 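Search for knock-downs that restore vorinostat killing in resistant colon cancer cells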 (primary screen)
- Cell system: human HCT116-VR colon cancer cells, selected for vorinostat resistance
- Reagents: siRNA pool against human genes, 40 nM siRNA pool
- Time to read-out: vorinostat for 24 h, read-out about 72 h after transfection
- Treatment: vorinostat at 2.5 µM final
- Measured: 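Cell viability by CellTiter-Fluor and caspase 3/7 activity by luminescence, each scaled to mock wells per plate, duplicates averaged, then robust z-scored over all plates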
- Reading the numbers: viability robust z-score: higher = more viable cells than screen typical; caspase robust z-score: higher = more caspase 3/7 activity than screen typical
- Rule for the call: 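a knock-down is a hit when classed RV1 or RV2 for lowered viability, or CA1 or CA2 for caspase activation; those lethal without drug were dropped; hits were retested singly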
Shown is a random part of about 18,000 reagents. Of all reagents, 450 (2.5%) are marked active. 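Single biological run; no consistent viability z cut-off exists, so the class columns, not z-scores, define the calls.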 Unmarked entries are inactive. The numbers tell different reagents against one gene apart.

| target gene | pool no. | viability hit class | caspase hit class | viability robust z-score | caspase robust z-score |
| --- | --- | --- | --- | --- | --- |
| CLIP2 | 1 | no change | no change | 0.67 | 0.05 |
| KCNJ14 | 1 | no change | no change | 0.22 | -0.68 |
| PEX5L | 1 | no change | no change | -0.57 | 0.57 |
| GMFG | 1 | no change | no change | -0.82 | 2.02 |
| GRSF1 | 1 | no change | no change | -0.09 | 2.7 |
| NOP14 | 1 | no change | no change | -1.52 | 2.38 |
| UBALD1 | 1 | no change | no change | -2.17 | 5.11 |
| CCN6 | 1 | no change | no change | -0.1 | -0.37 |
| GTF2F2 | 1 | no change | no change | 1.17 | 1.77 |
| KRTAP13-3 | 1 | no change | no change | 0.4 | -0.54 |
| MAN1A2 | 1 | no change | no change | 0.8 | 0.34 |
| CCR7 | 1 | no change | no change | 1.18 | -0.67 |
| VHL | 1 | no change | no change | -1.19 | 3.38 |
| PSMA1 | 1 | no change | no change | -3.86 | 1.68 |

Continued, starting with the last 2 of the part before.
| target gene | pool no. | viability hit class | caspase hit class | viability robust z-score | caspase robust z-score |
| --- | --- | --- | --- | --- | --- |
| VHL | 1 | no change | no change | -1.19 | 3.38 |
| PSMA1 | 1 | no change | no change | -3.86 | 1.68 |
| SMPD1 | 1 | no change | no change | -0.47 | -0.78 |
| ZNF341 | 1 | no change | no change | 0.92 | -0.53 |
| HOXA6 | 1 | no change | no change | 0.96 | 0.96 |
| DST | 1 | no change | no change | 2.24 | 0.12 |
| CEP97 | 1 | no change | no change | -0.93 | 0.86 |
| DENND1B | 1 | no change | no change | -0.38 | 1.34 |
| DENND1B | 2 | no change | no change | -0.4 | 1.13 |
| LRIG2 | 1 | no change | no change | -2.66 | 0.13 |
| AK4 | 1 | no change | no change | 0.8 | -0.12 |
| AK4 | 2 | no change | no change | 0.02 | -0.21 |
